The values below come from the supplement of paper PMC11348887.

Structures can show the parent of a compound that is named as a salt. Some of the results follow. Most values lie at the level of the controls, where differences are scatter. Where a SMILES comes first, the peptide text is derived from it. [ ]: non-standard residue; d: D form. The star is where a group is joined. Sta = CC(C)C[C@H](N)[C@@H](O)CC(=O)O; Isovaleryl = CC(C)CC(=O)*; Nle = CCCC[CH](N)C(=O)O

Common to all, as to conditions: 5 µM; treatment: days 7-14 after plating, readout day 21
Experiment [1] concerns hPSC-derived cortical neurons (WA09). The experiment can be described thus: nucleus area z-score vs screen plate; higher = larger nuclei (more mature).
Experiment [2] has the same test system. The experiment can be described thus: total neurite length per nucleus (MAP2) z-score; higher = more neurite growth.
Experiment [3] shares this test system. Briefly: nucleus roundness z-score vs screen plate; higher = rounder nuclei (more mature).
The test system is the same in experiment [4]. Briefly: KCl-induced FOS+/EGR-1+ double-positive nuclei fraction z-score (KCl minus unstimulated); higher = stronger activity-induced IEG response.

The molecule `C=CC1=C(C(=O)O)N2C(=O)[C@@H](NC(=O)/C(=N\O)c3csc(N)n3)[C@H]2SC1` [Cefdinir] came in with a nucleus area z-score in experiment [1] of 0.781. Further, the “total neurite length per nucleus (z-score)” value in experiment [2] was -0.645. The same molecule came in with a nucleus roundness z-score in experiment [3] of -2.59. Also, in experiment [4], the “KCl-induced FOS+/EGR-1+ double-positive nuclei fraction z-score” value was -0.722.

For the molecule `COc1nc(C)cnc1NS(=O)(=O)c1cccnc1-c1ccc(-c2nnco2)cc1` [Zibotentan (ZD4054)], in experiment [1], the nucleus area z-score is -1.19. For the same molecule, in experiment [2], the “total neurite length per nucleus (z-score)” value was -1.03. Besides, in experiment [3], the nucleus roundness z-score was 0.224. Further, the “KCl-induced FOS+/EGR-1+ double-positive nuclei fraction z-score” value in experiment [4] came to 0.0462.

Molecule `c1ccc(Cn2c(-c3ccc(OC[C@H](C4CCNCC4)n4c(-c5ccccc5)nc5ccccc54)cc3)nc3ccccc32)cc1` [Deltarasin] displayed a nucleus area z-score in experiment [1] of -14.4. Moreover, the “total neurite length per nucleus (z-score)” value in experiment [2] is -3.42. Also, the nucleus roundness z-score in experiment [3] is -1.96. The “KCl-induced FOS+/EGR-1+ double-positive nuclei fraction z-score” value in experiment [4] is -0.746.

Take `CC(C)CC(=O)N[C@H](C(=O)N[C@H](C(=O)N[C@@H](CC(C)C)[C@@H](O)CC(=O)N[C@@H](C)C(=O)N[C@@H](CC(C)C)[C@@H](O)CC(=O)O)C(C)C)C(C)C` [Pepstatin A] (Isovaleryl-VV[Sta]A[Sta]-OH): the nucleus area z-score in experiment [1] was determined as 0.0157. Further, the “total neurite length per nucleus (z-score)” value in experiment [2] amounted to 0.557. The nucleus roundness z-score in experiment [3] stood at 1.89. Further, the “KCl-induced FOS+/EGR-1+ double-positive nuclei fraction z-score” value in experiment [4] was found to be 1.45.

For `Cc1cc(-c2ncc(CC(=O)Nc3ccc(-c4cnccn4)cn3)cc2C)ccn1`, the nucleus area z-score in experiment [1] is 0.239. The “total neurite length per nucleus (z-score)” value in experiment [2] is -0.467. In addition, the nucleus roundness z-score in experiment [3] is -0.493. Also, the “KCl-induced FOS+/EGR-1+ double-positive nuclei fraction z-score” value in experiment [4] is -0.435.

Molecule `CN1CCN(Cc2ccc(NC(=O)Nc3ccc(Oc4ccnc(N)n4)cc3)cc2C(F)(F)F)CC1` displayed a nucleus area z-score in experiment [1] of -16.5. Also, the “total neurite length per nucleus (z-score)” value in experiment [2] is -6.68. In experiment [3], this molecule registered a nucleus roundness z-score of -13.9. Further, in experiment [4], the “KCl-induced FOS+/EGR-1+ double-positive nuclei fraction z-score” value was 1.1.

For `Cn1cc(-c2ccncc2)c(-c2ccc(OCc3ccc4ccccc4n3)cc2)n1`, the nucleus area z-score in experiment [1] is 0.18. The “total neurite length per nucleus (z-score)” value in experiment [2] stood at 0.871. In addition, the nucleus roundness z-score in experiment [3] turned out to be 0.763. Also, in experiment [4], the “KCl-induced FOS+/EGR-1+ double-positive nuclei fraction z-score” value was -0.128.

Molecule `CCCN(CCC)CCc1cccc2c1CC(=O)N2` [Ropinirole HCl] displayed a nucleus area z-score in experiment [1] of 0.317. Also, the “total neurite length per nucleus (z-score)” value in experiment [2] was determined as 0.492. This molecule also showed a nucleus roundness z-score in experiment [3] of 0.203. Besides, the “KCl-induced FOS+/EGR-1+ double-positive nuclei fraction z-score” value in experiment [4] is -0.304.

`COC(=O)c1ccc2c(c1)nc(NC(=O)c1ccccc1)n2CCCc1ccccc1` returned a nucleus area z-score in experiment [1] of -0.239. Moreover, in experiment [2], the “total neurite length per nucleus (z-score)” value worked out at 0.334. Moreover, the nucleus roundness z-score in experiment [3] came out at 0.332. In experiment [4], the “KCl-induced FOS+/EGR-1+ double-positive nuclei fraction z-score” value was 2.48.

Regarding `CCN(CC)CCCC(C)Nc1ccnc2cc(Cl)ccc12` (configuration not stated) [Chloroquine Phosphate], in experiment [1], the nucleus area z-score is 0.0659. The “total neurite length per nucleus (z-score)” value in experiment [2] is -0.207. In experiment [3], the nucleus roundness z-score is -0.0901. In experiment [4], the “KCl-induced FOS+/EGR-1+ double-positive nuclei fraction z-score” value is -0.148.

In experiment [1], `CCCCC(C=O)NC(=O)C(CC(C)C)NC(=O)C(CC(C)C)NC(C)=O` (stereo not drawn) (Ac-Leu-Leu-[Nle]-aldehyde; configuration not given here) returned a nucleus area z-score of -13.9. In addition, the “total neurite length per nucleus (z-score)” value in experiment [2] is -5.33. Also, the nucleus roundness z-score in experiment [3] is -1.35. Besides, the “KCl-induced FOS+/EGR-1+ double-positive nuclei fraction z-score” value in experiment [4] is -0.973.

As for `COc1ccc(S(=O)(=O)N(CCO)c2ccccc2CN(C)C/C=C/c2ccc(Cl)cc2)cc1` [KN-93 Phosphate], the nucleus area z-score in experiment [1] is -3.17. The “total neurite length per nucleus (z-score)” value in experiment [2] is -1.02. For the same molecule, the nucleus roundness z-score in experiment [3] is -1.05. Besides, the “KCl-induced FOS+/EGR-1+ double-positive nuclei fraction z-score” value in experiment [4] is -0.472.

On to `Cc1cc(Nc2nc(N[C@@H](C)c3ncc(F)cn3)ncc2Cl)[nH]n1`, for which the nucleus area z-score in experiment [1] came to 1.89. Besides, the “total neurite length per nucleus (z-score)” value in experiment [2] was found to be 0.546. In addition, the nucleus roundness z-score in experiment [3] was -1.32. Besides, the “KCl-induced FOS+/EGR-1+ double-positive nuclei fraction z-score” value in experiment [4] was -0.451.

Molecule `CC(C)NCC(O)c1ccc(O)c(O)c1` (configuration not stated) [Isoprenaline HCl] came in with a nucleus area z-score in experiment [1] of 0.617. For the same molecule, the “total neurite length per nucleus (z-score)” value in experiment [2] worked out at 0.722. In experiment [3], this molecule displayed a nucleus roundness z-score of 0.335. Further, the “KCl-induced FOS+/EGR-1+ double-positive nuclei fraction z-score” value in experiment [4] came to 1.08.

Consider `N#CCNC(=O)c1ccc(-c2ccnc(Nc3ccc(N4CCOCC4)cc3)n2)cc1`, for which the nucleus area z-score in experiment [1] is -0.352. For the same molecule, the “total neurite length per nucleus (z-score)” value in experiment [2] came to 0.376. In experiment [3], this molecule had a nucleus roundness z-score of 1.21. Moreover, the “KCl-induced FOS+/EGR-1+ double-positive nuclei fraction z-score” value in experiment [4] worked out at 1.26.

In the case of `OCCN(CCO)c1nc(N2CCCCC2)c2nc(N(CCO)CCO)nc(N3CCCCC3)c2n1` [Dipyridamole], the nucleus area z-score in experiment [1] worked out at 0.448. For the same molecule, in experiment [2], the “total neurite length per nucleus (z-score)” value is -0.739. In experiment [3], this molecule displayed a nucleus roundness z-score of 0.396. Moreover, in experiment [4], the “KCl-induced FOS+/EGR-1+ double-positive nuclei fraction z-score” value was -0.346.

For the molecule `Cc1nc(-c2ccc(OCC(C)C)c(C#N)c2)sc1C(=O)O` [Febuxostat], the nucleus area z-score in experiment [1] was found to be 0.99. In addition, the “total neurite length per nucleus (z-score)” value in experiment [2] turned out to be 0.000721. Moreover, the nucleus roundness z-score in experiment [3] was -0.316. Further, the “KCl-induced FOS+/EGR-1+ double-positive nuclei fraction z-score” value in experiment [4] is 0.896.

On to `COCCc1ccc(OCC(O)CNC(C)C)cc1` (configuration not stated) [Metoprolol Tartrate], for which the nucleus area z-score in experiment [1] came to 1.17. In experiment [2], the “total neurite length per nucleus (z-score)” value was -0.547. The molecule also returned a nucleus roundness z-score in experiment [3] of -0.477. Moreover, in experiment [4], the “KCl-induced FOS+/EGR-1+ double-positive nuclei fraction z-score” value is 0.32.

In the case of `CC[C@@H]1C(=O)N(C)c2cnc(Nc3ccc(C(=O)N[C@H]4CC[C@H](N5CCN(CC6CC6)CC5)CC4)cc3OC)nc2N1C(C)C` [Volasertib (BI 6727)], the nucleus area z-score in experiment [1] is -4.93. In experiment [2], the “total neurite length per nucleus (z-score)” value was -2.2. This molecule gave a nucleus roundness z-score in experiment [3] of -5.14. Moreover, the “KCl-induced FOS+/EGR-1+ double-positive nuclei fraction z-score” value in experiment [4] was -2.02.

In experiment [1], `CC(C)(C)NCC(O)COc1cccc2c1CCC(=O)N2` (configuration not stated) [Carteolol HCl] had a nucleus area z-score of 0.139. For the same molecule, the “total neurite length per nucleus (z-score)” value in experiment [2] came out at 0.469. In experiment [3], this molecule returned a nucleus roundness z-score of 0.329. Also, in experiment [4], the “KCl-induced FOS+/EGR-1+ double-positive nuclei fraction z-score” value stood at 0.0221.

`COc1cccc(-c2ccc(NC(=O)C3=C(C(=O)O)CCC3)c(F)c2)c1` [Vidofludimus] had a nucleus area z-score in experiment [1] of 0.463. The “total neurite length per nucleus (z-score)” value in experiment [2] turned out to be 0.687. The molecule further had a nucleus roundness z-score in experiment [3] of 0.201. The “KCl-induced FOS+/EGR-1+ double-positive nuclei fraction z-score” value in experiment [4] turned out to be 1.06.

Consider `CO[C@H]1O[C@@H]2O[C@@]3(C)CC[C@H]4[C@H](C)CC[C@@H]([C@H]1C)[C@@]24OO3` [Artemether], for which, in experiment [1], the nucleus area z-score is -0.358. In addition, the “total neurite length per nucleus (z-score)” value in experiment [2] is 0.398. In experiment [3], the nucleus roundness z-score came out at 0.486. The “KCl-induced FOS+/EGR-1+ double-positive nuclei fraction z-score” value in experiment [4] was -0.0912.

The molecule `CC(C)c1nc(N(C)S(C)(=O)=O)nc(-c2ccc(F)cc2)c1/C=C/[C@@H](O)C[C@@H](O)CC(=O)O` [Rosuvastatin Calcium] returned a nucleus area z-score in experiment [1] of -3.07. The “total neurite length per nucleus (z-score)” value in experiment [2] was -2.18. This molecule displayed a nucleus roundness z-score in experiment [3] of -1.63. The “KCl-induced FOS+/EGR-1+ double-positive nuclei fraction z-score” value in experiment [4] is -0.991.

In turn, `CC[C@@]1(O)C(=O)OCc2c1cc1n(c2=O)Cc2cc3c(CN(C)C)c(O)ccc3nc2-1` [Topotecan HCl] registered a nucleus area z-score in experiment [1] of -0.468. Moreover, in experiment [2], the “total neurite length per nucleus (z-score)” value was -1.02. Also, the nucleus roundness z-score in experiment [3] was -1.08. In addition, the “KCl-induced FOS+/EGR-1+ double-positive nuclei fraction z-score” value in experiment [4] is -0.133.

In the case of `NC(CO)(CO)CO` [Trometamol], the nucleus area z-score in experiment [1] was -0.781. In experiment [2], the “total neurite length per nucleus (z-score)” value came out at 0.166. For the same molecule, the nucleus roundness z-score in experiment [3] is -0.0767. Further, the “KCl-induced FOS+/EGR-1+ double-positive nuclei fraction z-score” value in experiment [4] was -0.0364.

In experiment [1], `Cc1cc(O)cc(C)c1Cl` [Chloroxylenol] came in with a nucleus area z-score of 0.193. The “total neurite length per nucleus (z-score)” value in experiment [2] amounted to 0.994. Further, the nucleus roundness z-score in experiment [3] came to 0.985. For the same molecule, the “KCl-induced FOS+/EGR-1+ double-positive nuclei fraction z-score” value in experiment [4] was -0.0497.

For `CCCCOc1c(C(=O)c2c(F)cc(C)cc2F)c[nH]c2nncc1-2`, the nucleus area z-score in experiment [1] amounted to 2.45. The “total neurite length per nucleus (z-score)” value in experiment [2] was -0.796. In addition, in experiment [3], the nucleus roundness z-score is -0.898. In addition, in experiment [4], the “KCl-induced FOS+/EGR-1+ double-positive nuclei fraction z-score” value is -0.227.

As for `COc1ccc(-c2cc(=O)c3c(OC)c(OC)c(OC)c(OC)c3o2)cc1` [Tangeretin], in experiment [1], the nucleus area z-score stood at 0.157. Besides, the “total neurite length per nucleus (z-score)” value in experiment [2] was 0.342. The same molecule gave a nucleus roundness z-score in experiment [3] of 0.475. Moreover, in experiment [4], the “KCl-induced FOS+/EGR-1+ double-positive nuclei fraction z-score” value is -0.656.
